PubChem BioAssay AID652243 – Drosophila RNAi Screening Center – 2013
In all, the deposit lists about 24,000 reagents; below is a random part of those that have a named target and a result. Over the whole deposit, 246 (1%) were called active. 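Plates not normalised; calls are printed but the firefly/Renilla ratio behind them is not deposited; fold cut for lowering reported inconsistently.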 The raw values are shown without normalisation. Names joined by + are all predicted targets of the reagent. The record does not give: the amount of reagent.

Purpose: 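Fly genes required for human androgen receptor driven transcription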 (primary screen)
System: Drosophila S2R+ cells
Reagents: long dsRNA against Drosophila genes
Time to read-out: 72 h (48 h, then 24 h hormone)
Treatment: synthetic androgen R1881 at 10 nM for 24 h
Detection: 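Per-well raw luminescence of the androgen-driven firefly reporter and of the Renilla control, two replicates each, without normalisation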
Direction: firefly reporter light: higher = more light from androgen-responsive reporter; Renilla control light: higher = more constitutive control signal (cell number, transfection)
Active means: 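Hit when the log firefly-to-Renilla ratio dropped or increased by a fixed fold versus the mean of GFP or LacZ controls across duplicate plates; lowering cut given as 1.5 and as 3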
Meaning of the calls: active = hit: reporter lowered or raised; inactive = no hit

no.	Target gene	amplicon	firefly reporter light, replicate 1	firefly reporter light, replicate 2	Renilla control light, replicate 1	Renilla control light, replicate 2	activity call
1	CG16879 (retired record)	DRSC01918	3.19e5	2.95e5	2.72e6	2.45e6	inactive
2	CG16879 (retired record)	DRSC22849	4.92e5	1.02e6	1.35e6	2.42e6	inactive
3	CG9662	DRSC00723	1.37e5	1.07e5	9.40e5	1.14e6	inactive
4	Alp1	DRSC11781	50815	40565	4.29e5	3.12e5	active
5	Alp1	DRSC36908					inactive
6	Glut3	DRSC16681	88605	1.14e5	1.75e6	2.06e6	inactive
7	Glut3	DRSC26249	3.66e5	3.40e5	6.16e5	7.03e5	inactive
8	wfs1	DRSC15676	2.40e5	2.30e5	2.75e6	2.46e6	inactive
9	Ubx	DRSC16891	3.47e5	4.26e5	2.35e6	2.80e6	inactive
10	Ubx	DRSC23812	6.10e5	4.29e5	1.84e6	5.62e5	inactive
11	Ubx	DRSC37677	5.41e5	5.28e5	1.90e6	1.60e6	inactive
12	ng1	DRSC18802	2.53e5	3.56e5	3.04e6	2.95e6	inactive
13	Ttc26	DRSC15591	4.62e5	5.12e5	2.71e6	3.52e6	inactive
14	Ttc26	DRSC27237	2.22e5	2.15e5	5.45e5	5.63e5	inactive
15	CG43307	DRSC00893	4.18e5	7.38e5	1.18e6	1.65e6	inactive
16	CG12069	DRSC14470	1.46e5	1.97e5	2.06e6	2.33e6	inactive
17	CG12069	DRSC26204	2.91e5	3.31e5	5.72e5	6.27e5	inactive
18	CG9986	DRSC16586	98357	88879	8.58e5	7.29e5	inactive
19	CG9986	DRSC29323	7.93e5	9.18e5	1.27e6	1.27e6	inactive
20	CG13562	DRSC04200	2.48e5	2.67e5	2.03e6	1.99e6	inactive
21	CG13562	DRSC28501	3.11e5	4.38e5	5.52e5	1.46e6	inactive
22	CG14282	DRSC14763	2.50e5	1.99e5	3.92e6	2.66e6	inactive
23	CG14282	DRSC26234	2.79e5	3.09e5	3.34e5	4.42e5	inactive
24	nrm	DRSC11599	1.40e5	1.85e5	4.34e5	4.24e5	inactive
25	nrm	DRSC11897	1.46e5	1.48e5	1.65e6	1.80e6	inactive
26	nrm	DRSC38832	1.03e6	8.53e5	2.56e6	1.67e6	inactive
27	Atat	DRSC10392	1.01e6	3.65e5	1.08e6	6.16e5	inactive
28	Bx	DRSC19624	5.72e5	4.74e5	3.99e6	3.56e6	inactive
29	Bx	DRSC23048	3.64e5	5.84e5	8.65e5	1.17e6	inactive
30	Bx	DRSC28506	3.74e5	5.55e5	8.70e5	1.44e6	inactive
31	Mctp	DRSC06510	1.78e5	1.78e5	2.30e6	2.16e6	inactive
32	Mctp	DRSC22896	5.66e5	8.83e5	1.82e6	2.82e6	inactive
33	Mctp	DRSC25505	6.79e5	9.75e5	1.29e6	1.12e6	inactive
34	Mctp	DRSC28921	5.95e5	4.56e5	1.20e6	1.65e6	inactive
35	Gr59e	DRSC04276	4.16e5	3.17e5	1.32e6	1.35e6	inactive
36	CG4332	DRSC19890	53722	32715	4.74e5	2.70e5	inactive
37	CG12702	DRSC19487	2.26e5	23813	8.00e5	1.03e5	inactive
38	CG12702	DRSC27645	2.44e5	2.69e5	6.08e5	7.91e5	inactive
39	HDAC6	DRSC20252	92033	1.27e5	7.12e5	8.13e5	inactive
40	HDAC6	DRSC29348	3.23e5	3.37e5	8.65e5	8.65e5	inactive
41	dpr6	DRSC09005	1.45e5	95085	1.45e5	1.92e5	inactive
42	dpr6	DRSC10162	3.26e5	2.03e5	3.47e6	1.97e6	inactive
43	dpr6	DRSC10163	7.86e5	6.94e5	2.94e6	4.23e6	inactive
44	CG42557 + CG42558	DRSC13963	1.39e6	8.01e5	3.70e6	1.80e6	inactive
45	CG42557 + CG42558	DRSC16329	87224	44819	6.37e5	4.11e5	inactive
46	san	DRSC07695	3.00e5	2.39e5	2.02e6	1.88e6	inactive
47	Atf-2 + veg (retired record)	DRSC04130	8.58e5	9.77e5	1.22e6	1.32e6	inactive
48	Atf-2 + veg (retired record)	DRSC04413	3.19e5	3.76e5	2.76e6	3.74e6	inactive
49	wrd	DRSC16344	1.50e5	1.67e5	1.61e6	1.83e6	inactive
50	wrd	DRSC23189	7.59e5	7.56e5	1.43e6	1.74e6	inactive
51	wrd	DRSC25929	3.28e5	3.56e5	1.11e6	1.08e6	inactive
52	Gart	DRSC03481	1.17e5	1.93e5	1.49e6	2.13e6	inactive
53	Gart	DRSC25995	3.45e5	5.64e5	7.19e5	5.69e5	inactive
54	CG7369	DRSC23501	5.28e5	7.75e5	8.38e5	9.57e5	inactive
55	CG42542	DRSC15549	34028	1.09e5	2.61e5	7.24e5	inactive
56	CG42542	DRSC22264	5.76e5	6.94e5	2.00e6	1.88e6	inactive
57	CG42542	DRSC26522	1.97e5	2.18e5	6.68e5	6.67e5	inactive
58	CG42542	DRSC26676	2.65e5	3.28e5	7.56e5	7.47e5	inactive

Just “Renilla control light, replicate 1” (7 entries from above):
wrd [DRSC23189] = 1.43e6
wrd [DRSC25929] = 1.11e6
Gart [DRSC03481] = 1.49e6
Gart [DRSC25995] = 7.19e5
CG7369 [DRSC23501] = 8.38e5
CG42542 [DRSC15549] = 2.61e5
CG42542 [DRSC22264] = 2.00e6
